Laboratory results published in US8846626B2, “Drug composition for treating chronic liver disease and its application” (Shuguang Hospital Affiliated with Shanghai University of …, priority 2010, dated 2014).
At least one structure is not confirmed: it was looked up by name or label, or the drawing left a doubt.

Tested on: rats of bile duct ligation
Experiment: Bile duct ligation (BDL) rat liver fibrosis model
Type: in vivo, SD male rats
Conditions: result in words; BDL rats vs model group
Source text: Effect of active component compatibility of Astragalus soup of anti-hepatic fibrosis for rats of bile duct ligation
83 SD male rats, SPF grade, weighing 200˜220 g, by the Shanghai Experimental Animal Center of Chinese Academy of Sciences, Certificate of Conformity: SCXK (Shanghai) 2010-0005, fed on the Shanghai Medical University Experimental Animal Center, free access to water.
Model rats (75 rats) are cut along the ventral midline, exposing the common bile duct, conversely injected hardener into hilus hepatis, ligating proximal and distal ends of the common bile duct, cutting the middle, closing the abdomen for 4 weeks. Sham-operated rats (8 rats) only have abdomen cut, and closed after freeing the common bile duct.
Starting from the first day of 2nd week of modeling, the model rats were randomly divided into 5 groups of astragalus soup, A/B combination, A alone, B alone, and UDCA, each group has 12 rats. While continuing modeling, the groups of administration are intervened by eight times of clinical dose amount of a 65 kg adult body weight. Before using, the drug compositions of astragalus soup, A/B combination, A alone, B alone, and UDCA (UDCA: 80 mg·kg^−1·d^−1, ig) are respectively diluted with 10 ml of distilled water, and is processed with intragastric administration according to 10 ml/kg rat body weight dose, once daily for 3 weeks. […]

C[C@H](CCC(=O)O)[C@H]1CC[C@H]2[C@@H]3[C@@H](O)C[C@@H]4C[C@H](O)CC[C@]4(C)[C@H]3CC[C@]12C [UDCA, Ursodeoxycholic acid]
pathological (histological) changes of liver fibrosis: no significant histological improvement
